# Results reported in PubChem BioAssay AID651640 (Broad Institute, 2012).
# Hit rate of the full screen: of about 350,000 compounds, about 6,000 (1.7%) were called active. The inconclusive results got no clear call from the source; some entries with a clear call stand among them for comparison. No stated cut-off is given here; in the data, active means CPE inhibition above about 20% (passing the limit was not always enough); inconclusive means no clear call, values can overlap the other calls; tested in BHK-21 cells.
# Assay: protection of cells from dengue 2 killing – plate reader, single concentration, primary screen (AID 651640);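 further: 0% = median of neutral control wells and 100% = median of positive control wells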
# Settings: DENV2-infected cells, cytopathic effect rescue, at 9.99 µM, hits give high values
row,Structure (SMILES),CPE inhibition
1,C[C@@H]1CN([C@@H](C)CO)C(=O)c2cc(NS(C)(=O)=O)ccc2O[C@@H]1CN(C)C(=O)Nc1ccc(C(F)(F)F)cc1,inactive: -8.96%
2,CC1Cc2ccccc2N1C(=O)c1cc2cccnc2n(C)c1=O (centres undefined),inconclusive: 47.3%
3,CN1c2ccc(-c3ccc(C#N)cc3)cc2[C@H]2[C@H](CCN2C(=O)C2CCCCC2)[C@@H]1CO,inconclusive: 42.6%
4,C[C@@H]1CN([C@@H](C)CO)C(=O)c2cc(NC(=O)Nc3ccc(C(F)(F)F)cc3)ccc2O[C@@H](C)CCCCO[C@H]1CN(C)Cc1ccc(Cl)c(Cl)c1,active: 23.8%
5,O=C(O)/C=C/c1ccc(S(=O)(=O)Nc2cccnc2)cc1,inconclusive: 41.5%
6,C[C@@H]1CN([C@H](C)CO)S(=O)(=O)c2ccc(C#C[C@@H](C)O)cc2O[C@H]1CN(C)Cc1ccccc1,inactive: 0.424%
7,CC(C)(C)Cc1c(-c2ccc(Br)cc2)nc2ccc(Br)cn12,active: 101%
8,Cc1noc(C)c1S(=O)(=O)Nc1ccc2c(c1)C(=O)N([C@H](C)CO)C[C@@H](C)[C@@H](CN(C)C(=O)Nc1ccc(C(F)(F)F)cc1)OCCCC[C@@H](C)O2,inconclusive: 21%
9,CC(C)CC#Cc1ccc([C@H]2[C@@H](CO)N3CCCCN(C(=O)c4ccc5c(c4)OCO5)C[C@@H]23)cc1,active: 23.7%
10,Cc1nn(-c2ccccc2)c(C)c1NC(=O)COc1cc(F)ccc1[N+](=O)[O-],inconclusive: 20.9%
11,Cc1noc(C)c1NC(=O)N[C@@H]1C=C[C@H](CC(=O)NCc2ccc(Cl)c(Cl)c2)O[C@H]1CO,inconclusive: 26.5%
12,CN1C(=O)c2cc(NS(=O)(=O)c3ccccc3Cl)ccc2OC[C@@H]2O[C@H](CC(=O)O)CC[C@@H]21,inconclusive: 80.4%
13,Cc1ccc(-c2cnc3c(c2)C(=O)N([C@H](C)CO)C[C@@H](C)[C@@H](CN(C)C(=O)c2ccccc2)O3)cc1,active: 68.4%
14,O=C(NCCCN1C(=O)c2ccccc2C1=O)OCc1ccccc1,inconclusive: 38.8%
15,Cc1ccc2c(-c3ccc([N+](=O)[O-])cc3)cc(=O)[nH]c2c1,inconclusive: 20.5%
16,CC1=CCC[C@H]2[C@H](C1)C(=O)C[C@@H](C)[C@]2(C)CC/C(=C/CO)CO,active: 23.9%
17,Cn1c(=O)c2cc(NC(=O)NCc3ccccc3)ccc2n1Cc1cccc(C(F)(F)F)c1,inactive: 10%
18,CC(/C=N/n1c(COc2ccccc2)n[nH]c1=S)=C\c1ccco1,inconclusive: 29.5%
19,COc1ccc(CN(C)C[C@@H]2OCCCC[C@@H](C)Oc3ccc(NS(=O)(=O)c4c(C)noc4C)cc3C(=O)N([C@@H](C)CO)C[C@H]2C)cc1,inconclusive: 44.2%
20,CCNC(=O)C1(C)CCN(Cc2noc(-c3c(C)noc3C)n2)C1 (centres undefined),active: 44.6%
21,CCOc1ccc(/C=N/NC(=O)C(=O)NCc2ccco2)cc1,inconclusive: 54.8%
22,O=C(O)CCN(CC(=O)c1ccc(Cl)cc1)S(=O)(=O)c1ccc([N+](=O)[O-])cc1,inconclusive: 29%

# A second format for some results above:
row | Structure (SMILES) | CPE inhibition
2 | CC1Cc2ccccc2N1C(=O)c1cc2cccnc2n(C)c1=O (centres undefined) | inconclusive: 47.3%
4 | C[C@@H]1CN([C@@H](C)CO)C(=O)c2cc(NC(=O)Nc3ccc(C(F)(F)F)cc3)ccc2O[C@@H](C)CCCCO[C@H]1CN(C)Cc1ccc(Cl)c(Cl)c1 | active: 23.8%
6 | C[C@@H]1CN([C@H](C)CO)S(=O)(=O)c2ccc(C#C[C@@H](C)O)cc2O[C@H]1CN(C)Cc1ccccc1 | inactive: 0.424%
7 | CC(C)(C)Cc1c(-c2ccc(Br)cc2)nc2ccc(Br)cn12 | active: 101%
10 | Cc1nn(-c2ccccc2)c(C)c1NC(=O)COc1cc(F)ccc1[N+](=O)[O-] | inconclusive: 20.9%
12 | CN1C(=O)c2cc(NS(=O)(=O)c3ccccc3Cl)ccc2OC[C@@H]2O[C@H](CC(=O)O)CC[C@@H]21 | inconclusive: 80.4%
18 | CC(/C=N/n1c(COc2ccccc2)n[nH]c1=S)=C\c1ccco1 | inconclusive: 29.5%
19 | COc1ccc(CN(C)C[C@@H]2OCCCC[C@@H](C)Oc3ccc(NS(=O)(=O)c4c(C)noc4C)cc3C(=O)N([C@@H](C)CO)C[C@H]2C)cc1 | inconclusive: 44.2%

# Continuation.

row,Structure (SMILES),CPE inhibition
1,Cc1ccc(S(=O)(=O)N2CC[C@H]3[C@@H](CO)N(C)c4ccc(C#Cc5cccnc5)cc4[C@H]32)cc1,inactive: -11.7%
2,Cc1ccc(N2CCN(C(=O)C3CCC(=O)N(Cc4ccc(Cl)cc4)C3)CC2)c(C)c1 (centres undefined),inconclusive: 32.8%
3,CCC(=O)Nc1ccc2c(c1)OC[C@H](C)N(CC1CC1)C[C@@H](C)[C@@H](OC)CN(C)C2=O,inconclusive: 42.1%
4,CC1=C(C(=O)Nc2ccccc2C(=O)NCCCOC(C)C)SCCO1,inconclusive: 23.5%
5,COC(=O)[C@@]1(CCS(=O)(=O)c2ccccc2)N=C(c2ccc(OCCCO)cc2)O[C@H]1c1ccccc1CN=[N+]=[N-],active: 21.6%
6,CO[C@@H]1CN(C)C(=O)c2cc(NC(=O)C3CC3)ccc2OC[C@H](C)N(C)C[C@H]1C,inconclusive: 42%
7,CC1(C)CC(=O)C2=C(C1)Nc1ccccc1NC2c1ccc(F)c(F)c1 (centres undefined),active: 22.7%
8,CCC(=O)N1C[C@H](C)[C@H](OC)CN(C)C(=O)c2cc(NC(=O)c3ccc(F)cc3)ccc2OC[C@H]1C,inconclusive: 24.7%
9,COc1ccc(-c2cc(C)no2)cc1S(=O)(=O)NCC(C)c1ccccc1 (centres undefined),inactive: 2.96%
10,CCCCCCCCN1C(=O)[C@@H](CC(=O)NCc2cccc3ccccc23)C[C@@]2(C(=O)OC)C1=C[C@H](C1CCCC1)O[C@@H]2C,inconclusive: 25.1%
11,CCCN1[C@@H]2Cn3c(ccc(/C=C/c4ccccc4)c3=O)[C@H]1[C@@H](C(=O)NCC1CC1)[C@@H]2CO,inconclusive: 44.9%
12,O=C(CSc1nc(=O)n(CCCN2CCOCC2)c2c1CCCC2)Nc1cccc([N+](=O)[O-])c1,inconclusive: 43.4%
13,CC(C)c1ccc(C2(C)NC(=O)N(CC(=O)N3CCN(C(=O)c4cccs4)CC3)C2=O)cc1 (centres undefined),inconclusive: 22.8%
14,CC(=O)c1ccccc1NC(=O)COC(=O)/C=C/c1cccs1,inactive: -1.48%
15,C=CCNC(=S)N1CCc2c([nH]c3ccccc23)C1C (centres undefined),inconclusive: 22.2%
16,NC(c1ccccc1)c1csc(Nc2cc(Oc3ccccc3)ncn2)n1 (centres undefined),inconclusive: 32.7%
17,O=C(CN1CCN(C(=O)C2CCN(C(=O)/C=C/c3ccccc3)CC2)CC1)Nc1ccc(F)cc1,inconclusive: 58.9%
18,C[C@H]1CCCCO[C@@H](CN(C)S(=O)(=O)c2cccs2)[C@@H](C)CN([C@@H](C)CO)C(=O)c2cc(NC(=O)NC3CCCCC3)ccc2O1,inconclusive: 22.4%
19,CO[C@@H]1CN(C)C(=O)c2ccc(NC(=O)c3cccc(F)c3)cc2OC[C@H](C)NC[C@@H]1C,active: 23.6%
20,Cc1c(C(=O)NNC(=O)c2csc(N3CCOCC3)n2)cccc1[N+](=O)[O-],inconclusive: 39.8%
21,CO[C@H]1CN(C)C(=O)c2ccc(NC(=O)c3ccc(F)cc3)cc2OC[C@H](C)NC[C@H]1C,inconclusive: 36%
22,CCCCn1c(N)c(N(CC(C)C)C(=O)C2CCN(C(=O)c3ccc(F)cc3)CC2)c(=O)[nH]c1=O,inconclusive: 46.7%
